# Earlier results, collected in patent publication US5342947A, “Preparation of water soluble camptothecin derivatives” (Glaxo Inc., priority 1992, dated 1994).
# Conditions: in words, background; cited from earlier work
compound,measurement,value
"CC[C@@]1(O)C(=O)OCc2c1cc1n(c2=O)Cc2cc3ccccc3nc2-1 [camptothecin, Camptothecin]","solubility in water / physiologically compatible, aqueous media",essentially insoluble
